This is one part of the list. These are further read-outs of the screen, such as a control signal, another cell line or another target. No call is given for them. Compounds called inactive in the main read-out are mostly missing here. The note in brackets gives the kind of curve behind each potency; many fits are weak.
Experiment: qHTS Assay for Lipid Storage Modulators in Drosophila S3 Cells;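 on cell number change: cells counted by Cell Tracker Red CMTPX staining in the red channel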
Conditions: BODIPY lipid droplet fluorescence, 18-24 h; for cell number change: measured here: cell count max response, cells fed with added oleic acid
In short: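 Laser-scanning cytometry quantifies lipid droplet accumulation (500–530 nm total intensity; droplet/cell object ratio) in oleic acid-fed (400 uM added) Drosophila S3 cells treated with a concentration series. 20 uM Triacsin C defined 100% inhibition.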

[1] = measured here: lipid fluorescence (Fed channel) AC50, cells fed with added oleic acid
[2] = measured here: cell number channel AC50, cells fed with added oleic acid

Structure (SMILES)	cell number change	AC50 [1]	AC50 [2]
O=C(CN1CCCN(S(=O)(=O)c2ccc(F)cc2)CC1)Nc1cccc(F)c1	16.7%	29.1 µM [falling, single point]	
CCC(=O)N1CCc2cc(S(=O)(=O)N3CCN(C(=O)c4ccco4)CC3)ccc21	-32.6%	0.731 µM [rising, full curve]	18.4 µM [falling, partial curve]
CC(=O)N1CCN(S(=O)(=O)c2cccc(C(=O)Nc3ccc4c(c3)OCO4)c2)CC1	11.5%		
CN(C)C(CNC(=O)c1cccc(OC(F)F)c1)c1ccco1 (configuration not stated)	8.39%		
CCc1ccc2nc(N(CCCN(C)C)C(=O)c3ccc(S(=O)(=O)N4CCc5ccccc5C4)cc3)sc2c1	0.403%	18.4 µM [falling, single point]	
COc1ccc(-c2[nH]ncc2CN2CCCC2c2nonc2C)c(F)c1 (configuration not stated)	6.48%		
O=C(NC1(C(F)(F)F)OCCO1)c1ccc(F)cc1	9.24%		
CCOc1ccc2nc(SCC(=O)NNC(=O)c3ccco3)c(C)cc2c1	8.26%		
O=C(Nc1cccc(Cl)c1)c1ccc(=O)[nH]n1	8.63%	4.11 µM [rising, partial curve, poor fit]	
Cn1ccnc1SCC(=O)NC1CCCC1	22.2%	1.03 µM [falling, single point]	
N#CC(c1ccccc1)c1ccc2c(C(F)(F)F)cc(C(F)(F)F)nc2n1 (configuration not stated)	-2.96%		4.61 µM [falling, single point]
CCCc1nnc(NC(=O)CCC(=O)NCc2ccccc2OC)s1	24.5%		
O=C1NC(=O)C2(CCCc3ccccc32)N1 (configuration not stated)	5.38%	13 µM [rising, partial curve]	
CCCNc1nc(C)c(C(C)=O)cc1C#N	35.8%		5.8 µM [rising, partial curve, poor fit]
COc1ccc(-c2cc(=O)c3ccccc3[nH]2)cc1	-20.3%	5.17 µM [falling, full curve]	
O=C(NCc1ccccc1)C1CCCN(S(=O)(=O)c2cccs2)C1 (configuration not stated)	13.6%	2.91 µM [rising, partial curve]	
O=C(NCCc1ccccn1)c1cccc(S(=O)(=O)N2CCc3ccccc32)c1	-112%		4.61 µM [falling, single point]
CC(CCc1ccccc1)NC(=O)CCNS(=O)(=O)c1ccccc1 (configuration not stated)	8.5%		
Cn1cc(Br)c(C(=O)N/N=C/c2cc3c(cc2Cl)OCO3)n1	-22.9%	6.51 µM [rising, partial curve, poor fit]	
CCOc1ccc(CN2C(=O)c3ccccc3C2=O)cc1C(=O)Nc1nnc(SCC)s1	42.1%	6.51 µM [falling, single point]	32.6 µM [rising, single point]
Cc1cc(-c2ccc(C)c(S(=O)(=O)NCC3CCN(Cc4ccccc4F)CC3)c2)on1	4.89%	29.1 µM [rising, single point]	

Structure (SMILES)	cell number change	AC50 [1]	AC50 [2]
C[C@H](NC(=O)C1CCN(S(=O)(=O)c2ccccc2)CC1)C(=O)NCc1ccccn1	-5.6%	29.1 µM [rising, single point]	
Cc1cc(C)c(S(=O)(=O)n2nc(C)c(Br)c2C)c(C)c1	-2.3%	32.6 µM [falling, single point]	
CC1=CC(C)(C)N=C(Nc2ccc(C)cc2)S1	7.58%	0.82 µM [rising, full curve]	0.517 µM [rising, full curve, poor fit]
CCOC(=O)c1ccccc1NC1c2ccccc2C(=O)N1c1cc(C)ccn1 (configuration not stated)	-8.12%	0.291 µM [rising, full curve]	
Cc1nc2nc(SCC(=O)NCCCN3CCOCC3)nn2c(C)c1Cc1ccccc1	-10.9%		0.00461 µM [falling, full curve, poor fit]
COc1ccc(NC(=O)C(c2ccc(C)cc2)N(C)C(=O)c2cnccn2)cc1 (configuration not stated)	9.87%	23.1 µM [rising, partial curve, poor fit]	
COc1ccc(-c2noc(Cc3ccccc3OC)n2)cc1	3.98%	5.8 µM [rising, partial curve]	
CC(C)(C)N1C(=O)c2ccc(C(=O)Nc3ccc(O)cc3)cc2C1=O	-38.4%		16.4 µM [falling, single point]
O=C(NCc1n[nH]c(=S)n1-c1ccc(Cl)c(Cl)c1)c1ccc(S(=O)(=O)N2CCOCC2)cc1	17.4%		
COC(=O)c1ccc(OC(C)C(=O)c2ccc(C)cc2)cc1 (configuration not stated)	-1.76%	6.51 µM [rising, single point]	
Cc1noc(C(=O)NCC2CCCO2)c1Cl (configuration not stated)	0.895%		7.31 µM [falling, single point]
COc1ccc(-c2oc3ncnc(N)c3c2-c2ccccc2)cc1		2.59 µM [rising, partial curve]	1.64 µM [rising, partial curve]
O=C(c1cc2c(s1)CCCC2)N1CCN(C(=O)C2CCCO2)CC1 (configuration not stated)		0.461 µM [falling, single point]	
CC(C)C(C)NC(=O)CN1C(=O)NC2(CCCc3ccccc32)C1=O (configuration not stated)	-2.54%		
COc1ccccc1NC(=O)Cn1nc(-c2ccc(Cl)cc2)c2ccccc2c1=O			1.3 µM [rising, partial curve]
COc1cccc(-c2cc(C(=O)Nc3cc(C)n(Cc4ccc(Cl)cc4)n3)no2)c1		3.26 µM [rising, partial curve]	
Cc1ccc(S(=O)(=O)N2CCN(C(=O)c3ccc(N4CCCC4)c([N+](=O)[O-])c3)CC2)cc1	-8.71%	0.731 µM [falling, single point]	
COc1cccc2c(C)cc(N3CCCCCC3)nc12	-16%		
Cc1ccc(C(C(=O)NC(C)(C)C)N(C(=O)c2csnn2)c2ccccc2F)o1 (configuration not stated)	3.04%	5.8 µM [falling, full curve]	
CCN1C(=O)[C@H]2[C@@H](c3ccc(C)cc3)N3C(=O)N(c4ccccc4)C(=O)[C@@]3(Cc3ccc(Cl)cc3)[C@H]2C1=O	9.39%		
O=C(COC(=O)c1ccccc1NCc1ccco1)Nc1ccc2c(c1)OCO2	-33.5%		29.1 µM [falling, single point]

One compound at a time, from the list above:
`O=C(c1cc2c(s1)CCCC2)N1CCN(C(=O)C2CCCO2)CC1` (configuration not stated) in the list: AC50 [1]: 0.461 µM [falling, single point]
`Cc1cc(C)c(S(=O)(=O)n2nc(C)c(Br)c2C)c(C)c1` in the list: cell number change: -2.3%; AC50 [1]: 32.6 µM [falling, single point]

Following part:

Structure (SMILES)	cell number change	AC50 [1]	AC50 [2]
CCN1CCCC1CN(Cc1cc2c(C)cc(C)cc2[nH]c1=O)C(=O)NC1CCCCC1 (configuration not stated)	2.2%	16.4 µM [falling, single point]	
O=C(COc1ccc2c3c(c(=O)oc2c1)CCC3)N1CCCCC1	5.13%	29.1 µM [falling, partial curve, poor fit]	
O=C(CP(=O)(c1ccccc1)c1ccccc1)N1CCOCC1	21.9%	13 µM [rising, single point]	
COc1ccc(-n2c(=S)[nH]c3sc(-c4ccccc4)cc3c2=O)c(OC)c1	-9.29%		
CN(CC(=O)Nc1cccc(F)c1)C(=O)c1cccc(N2C(=O)CCC2=O)c1	2.81%		
CCCC1CC(CSC(=N)N)OC1=O (configuration not stated)	-32.9%	0.146 µM [falling, full curve, poor fit]	0.13 µM [falling, full curve]
O=C(CCc1nnc2ccc(N3CCCC3)nn12)Nc1ccc(F)cc1F		6.51 µM [rising, single point]	
COc1ccc(S(=O)(=O)Cc2ccc(C(=O)O)o2)cc1	-23.4%	29.1 µM [falling, single point]	
COc1ccc(C2(CNC(=O)C(=O)Nc3ccc(C)cc3)CCOCC2)cc1	36.3%	3.66 µM [rising, partial curve, poor fit]	23.1 µM [rising, partial curve, poor fit]
OCCN1CCN(C2Cc3cc(Cl)ccc3Sc3ccc(Cl)cc32)CC1 (configuration not stated) (tested in a mixture with another compound)	-53.7%	16.4 µM [falling, single point]	16.4 µM [falling, single point]
CCC(C)[C@H](NC(=O)C1CC(=O)N(c2ccc3c(c2)OCCO3)C1)C(=O)N1CCCCC1 (some centres not stated)	24.5%		
N#CC1=C(N)Oc2nc[nH]c(=O)c2C1c1cccs1 (configuration not stated)	-8.74%	3.26 µM [falling, partial curve, poor fit]	
Cn1c(/C=C/N(Cc2ccccc2)c2ccccc2)c([N+](=O)[O-])c(=O)n(C)c1=O		2.31 µM [rising, partial curve, poor fit]	
COc1ccc(OC)c(CN2CCN(C(=O)CNC(=O)c3ccc(C(C)(C)C)cc3)CC2)c1		2.06 µM [falling, partial curve]	
O=C1Nc2cc(C(=O)NCCCN3CCOCC3)ccc2S/C1=C/c1ccccc1F	-23%	29.1 µM [falling, single point]	
CCc1ccccc1Nc1nc(N)nc(CSCC(=O)c2cc(C)n(C)c2C)n1	20.9%	4.11 µM [rising, partial curve]	
COc1cc(/C=N/n2nnnc2N)ccc1OCC(N)=O	-20.5%	0.58 µM [rising, full curve]	
CCC(=O)Nc1nc(CC(=O)Nc2ccccc2)cs1	29.9%	7.31 µM [falling, single point]	
O=C(Nc1ccccc1C(=O)N/N=C/c1ccco1)c1ccc(F)cc1	-1.84%	3.26 µM [rising, partial curve]	
O=[N+]([O-])c1ccc(Nc2ccc(Cl)cc2)nc1	17.2%	0.00461 µM [rising, full curve, poor fit]	
O=C1NC(=S)/C(=C\c2ccc(-c3ccccc3Cl)o2)S1	-33.3%		0.00461 µM [falling, full curve, poor fit]

3 of the compounds above, with bars between the fields.
Structure (SMILES) | cell number change | AC50 [1] | AC50 [2]
CCC(C)[C@H](NC(=O)C1CC(=O)N(c2ccc3c(c2)OCCO3)C1)C(=O)N1CCCCC1 (some centres not stated) | 24.5% |  | 
CCC(=O)Nc1nc(CC(=O)Nc2ccccc2)cs1 | 29.9% | 7.31 µM [falling, single point] | 
O=C(Nc1ccccc1C(=O)N/N=C/c1ccco1)c1ccc(F)cc1 | -1.84% | 3.26 µM [rising, partial curve] | 
